Record: PubChem BioAssay AID504774 (Drosophila RNAi Screening Center, 2011)
In all, the deposit lists about 23,000 reagents; below is an unselected part of those with a known target gene and a result. 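Values are quantile-normalised luminescence on an arbitrary scale; higher means more cells surviving MMS.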 A plus sign joins genes that one reagent is predicted to hit. Reagent sequences are not shown.

Purpose: 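Knock-downs that shift viability of MMS-exposed cells relative to untreated ones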 (primary screen)
Cell system: Drosophila Kc167 cells
Reagent: long dsRNA against Drosophila genes, about 0.25 µg dsRNA per well
Time to read-out: about 6 days: 3 days knock-down, then 3 days with or without MMS
Challenge: methyl methanesulphonate 0.004% (w/v) for 3 days after knock-down
Read-out: 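ATP-dependent luminescence as a measure of live cells in MMS-exposed wells, quantile normalised within each plate, with replicate values also given as a mean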
Scale: mean viability with MMS and viability with MMS: higher = more surviving cells after MMS

no.	target gene	DRSC id	mean viability with MMS	viability with MMS, replicate 1	viability with MMS, replicate 2
1	Trpml + CG42638	DRSC11032	3.40e6	3.87e6	3.80e6
2	CG30380	DRSC05069	3.49e6	3.92e6	3.97e6
3	twy	DRSC10562	3.72e6	4.11e6	4.24e6
4	CG10459	DRSC05991	3.52e6	3.93e6	4.05e6
5	CG10459	DRSC22092	3.36e6	3.83e6	3.93e6
6	CG18754	DRSC15387	3.48e6	4.10e6	3.76e6
7	CG14621	DRSC20635	3.61e6	4.18e6	3.97e6
8	CG12253	DRSC02153	3.69e6	4.09e6	4.33e6
9	CG6567	DRSC16066	3.51e6	4.00e6	3.97e6
10	Nup358	DRSC14410	3.30e6	3.74e6	3.77e6
11	CG31806	DRSC02787	3.55e6	4.07e6	3.98e6
12	sn	DRSC18834	3.72e6	4.26e6	4.18e6
13	PCNA	DRSC07653	3.30e6	3.81e6	3.74e6
14	Papst2	DRSC10924	3.74e6	4.26e6	4.13e6
15	Ctl1	DRSC08303	3.40e6	3.82e6	3.90e6
16	CG34002	DRSC09512	3.70e6	4.35e6	4.01e6
17	CG34002	DRSC11953	3.51e6	3.96e6	4.00e6
18	gcl	DRSC07623	3.41e6	3.81e6	3.87e6
19	CG9861	DRSC04576	3.69e6	4.30e6	4.24e6
20	CG17027	DRSC10238	3.69e6	4.14e6	4.18e6
21	CG5757	DRSC06951	3.51e6	3.83e6	4.12e6
22	Cchl	DRSC15949	3.58e6	4.05e6	4.07e6
23	Meltrin	DRSC16274	3.61e6	4.19e6	4.04e6
24	Meltrin	DRSC21693	3.44e6	3.87e6	3.98e6
25	CG4553	DRSC15595	3.27e6	3.70e6	3.69e6
26	CG18585	DRSC02678	3.61e6	3.98e6	4.22e6
27	Snx16	DRSC06984	3.55e6	4.09e6	3.95e6
28	CG31245	DRSC15498	3.62e6	4.05e6	4.15e6
29	FipoQ	DRSC15413	3.38e6	3.84e6	3.86e6
30	CheA46a	DRSC05184	3.48e6	3.99e6	3.88e6
31	Arl5	DRSC10785	3.61e6	4.01e6	4.17e6
32	sas	DRSC12631	3.42e6	3.94e6	3.84e6
33	CG32006	DRSC21768	3.14e6	3.74e6	3.71e6
34	CG34040	DRSC03902	3.57e6	4.13e6	3.96e6
35	CG2685	DRSC18463	3.04e6	3.69e6	3.66e6
36	AlaRS	DRSC01851	3.41e6	3.89e6	3.73e6
37	CG11369	DRSC17779	3.49e6	4.00e6	3.93e6
38	Fbl6	DRSC06335	3.49e6	4.02e6	3.88e6
39	Trs33	DRSC15990	3.65e6	4.41e6	3.88e6
40	Setd3	DRSC17840	3.49e6	4.07e6	3.86e6
41	Setd3	DRSC18269	3.45e6	4.03e6	3.80e6
42	gdl-ORF39 + gdl	DRSC11350	3.47e6	3.92e6	3.91e6
43	Nepl16	DRSC14650	3.58e6	3.99e6	4.13e6
44	mal	DRSC20581	3.59e6	4.07e6	4.09e6
45	Orcokinin	DRSC04202	3.44e6	3.97e6	3.81e6
46	sky	DRSC02383	3.69e6	4.36e6	4.10e6
47	sky	DRSC03214	3.56e6	4.48e6	3.87e6
48	sky	DRSC03215	3.65e6	4.04e6	4.23e6
49	CG14950 (retired record)	DRSC08409	3.48e6	3.97e6	3.94e6
50	Sam-S	DRSC00758	2.94e6	3.20e6	3.29e6
51	CG43338	DRSC22055	3.80e6	4.35e6	4.14e6
52	RpS7	DRSC15394	3.00e6	3.55e6	3.55e6
53	Bin1	DRSC16843	3.51e6	4.01e6	3.96e6
54	Set1	DRSC20930	3.40e6	3.83e6	3.86e6
55	Set1	DRSC20931	3.28e6	3.77e6	3.77e6
56	CG33292 (retired record)	DRSC22923	3.65e6	4.08e6	4.13e6
57	Pss	DRSC11757	3.43e6	3.79e6	3.95e6
58	2mit	DRSC14194	3.52e6	4.09e6	3.89e6
59	2mit	DRSC15224	3.56e6	4.11e6	3.98e6
60	foi	DRSC10719	3.27e6	3.63e6	3.68e6
61	CG15554	DRSC15092	3.52e6	3.95e6	4.02e6
62	ppk8	DRSC17269	3.32e6	3.78e6	3.74e6
63	CG13428	DRSC06390	3.41e6	3.87e6	3.83e6
64	CG15528	DRSC15065	3.44e6	3.96e6	3.78e6
65	CG1750	DRSC15240	3.38e6	3.92e6	3.76e6
66	Mkk4	DRSC16739	3.57e6	4.02e6	4.08e6
67	wgn	DRSC19998	3.59e6	4.09e6	4.03e6
68	Uxt	DRSC01962	3.42e6	3.90e6	3.86e6
69	CG8272	DRSC07134	3.60e6	4.06e6	4.10e6
70	CG14306 (retired record)	DRSC14785	3.53e6	3.84e6	4.16e6
71	CG11815	DRSC08209	3.43e6	3.91e6	3.90e6
72	Loxl2	DRSC04469	3.61e6	4.29e6	3.93e6
73	CG14106	DRSC10109	3.52e6	3.92e6	4.07e6
74	CG8929	DRSC07298	3.59e6	4.06e6	4.09e6
75	CG8929	DRSC22847	3.45e6	3.94e6	3.94e6
76	CG7916	DRSC01901	3.55e6	4.00e6	4.04e6
77	CG14598	DRSC12541	3.31e6	3.75e6	3.82e6
78	CG18179	DRSC10303	3.64e6	4.06e6	4.13e6
79	CG6753	DRSC16108	3.52e6	4.01e6	4.00e6
80	ATP6AP2	DRSC16420	3.30e6	3.72e6	3.83e6
81	sdt	DRSC17555	3.50e6	4.00e6	3.95e6
82	sdt	DRSC17556	3.52e6	4.08e6	3.92e6
83	sdt	DRSC17860	3.59e6	4.14e6	4.02e6
84	sdt	DRSC17861	3.53e6	4.02e6	3.99e6
85	sdt	DRSC18022	3.46e6	3.93e6	3.93e6
86	sdt	DRSC18025	2.80e6	3.43e6	3.36e6
87	sdt	DRSC18026	2.79e6	3.36e6	3.42e6
88	sdt	DRSC18027	3.49e6	3.92e6	4.00e6
89	sdt	DRSC18108	3.92e6	4.29e6	4.70e6

Not a retest: 13 of the entries above.
no.	target gene	DRSC id	mean viability with MMS	viability with MMS, replicate 1	viability with MMS, replicate 2
30	CheA46a	DRSC05184	3.48e6	3.99e6	3.88e6
31	Arl5	DRSC10785	3.61e6	4.01e6	4.17e6
32	sas	DRSC12631	3.42e6	3.94e6	3.84e6
33	CG32006	DRSC21768	3.14e6	3.74e6	3.71e6
34	CG34040	DRSC03902	3.57e6	4.13e6	3.96e6
35	CG2685	DRSC18463	3.04e6	3.69e6	3.66e6
36	AlaRS	DRSC01851	3.41e6	3.89e6	3.73e6
37	CG11369	DRSC17779	3.49e6	4.00e6	3.93e6
38	Fbl6	DRSC06335	3.49e6	4.02e6	3.88e6
39	Trs33	DRSC15990	3.65e6	4.41e6	3.88e6
40	Setd3	DRSC17840	3.49e6	4.07e6	3.86e6
41	Setd3	DRSC18269	3.45e6	4.03e6	3.80e6
42	gdl-ORF39 + gdl	DRSC11350	3.47e6	3.92e6	3.91e6
